Assay results reported in publication PMC4887895.

Biological target: VN155-UNC-76 (C. elegans)
Assay: split reporter; Venus BiFC of VC155-UNC-64 and VN155-UNC-76 in neurons of live transgenic C. elegans (wild type, par-1 and unc-18 mutants), spinning disk confocal imaging

B1: VC155-UNC-64 (protein, UniProt O16000 1-291)
chain: MTKDRLSALKAAQSEDEQDDDMHMDTGNAQYMEEFFEQVEEIRGSVDIIANNVEEVKKKHSAILSNPVNDQKTKEELDELMAVIKRAANKVRGKLKLIENAIDHDEQGAGNADLRIRKTQHSTLSRRFVEVMTDYNKTQTDYRERCKGRIQRQLDIAGKQVGDEDLEEMIESGNPGVFTQGIITDTQQAKQTLADIEARHNDIMKLESSIRELHDMFMDMAMLVESQGEMVDRIEYNVEHAKEFVDRAVADTKKAVQYQSKARRKKICILVTGVILITGLIIFILFYAKVL
B1 was tested, and the binding was “binds”.

No constants are given. Whether binding was seen depends on the method and setting. In cells and extracts the contact can be indirect. A result given as binding can be weak or reduced; the word gives no strength.
